# Measurements reported in PubChem BioAssay AID504764 (Drosophila RNAi Screening Center, 2011).
# Purpose: 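Knock-downs that raise or lower a Notch target reporter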 (primary screen)
# System: Drosophila Kc167 cells
# Reagent: long dsRNA against Drosophila genes
# Duration: about 5 days (4 days dsRNA, then 24 h after transfection)
# Treatment: transfection of constitutively active membrane-tethered Notch lacking the extracellular domain, read 24 h later
# Detection: 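Firefly luciferase from an E(spl)m3 reporter with active Notch, plus control-promoter and uninduced reporter wells for normalisation; unnormalised counts, duplicate wells a and b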
# Direction: induced reporter light, run 1, well a and induced reporter light, run 1, well b: higher = more light from the Notch target reporter with active Notch; control promoter light, run 1, well a and control promoter light, run 1, well b: higher = more light from the viral control promoter (cell number, transfection, viability); uninduced reporter light, run 1, well a: higher = more light from the Notch target reporter without active Notch
# Call rule: 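Wells with low control signal or poorly matching duplicates excluded; duplicates averaged; per source plate, z beyond ±2 for induced/control log2 ratio or beyond ±1.8 for induced/uninduced marks a hit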
# Meaning of the calls: active = modifier hit (raised or lowered Notch signal); inactive = not a hit
# In all, the deposit lists about 22,000 reagents; below is an unselected part of those with a known target gene and a result. In the full data, 403 (1.9%) were called active. 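Unnormalised raw counts per well; ratio z-scores behind the hit calls and whether each hit raises or lowers signal are not deposited.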 Names joined by + are all predicted targets of the reagent. Not stated in the record: the amount of reagent.
The opening 4 entries, ahead of the listing:
"induced reporter light, run 1, well a","induced reporter light, run 1, well b","control promoter light, run 1, well a","control promoter light, run 1, well b","uninduced reporter light, run 1, well a",call,target gene,DRSC id
1.59e5,1.08e5,1.09e5,1.29e5,10405,inactive,Zip48C (Zinc/iron regulated transporter-related protein 48C),DRSC06314
1.58e5,1.84e5,2.09e5,2.33e5,11260,inactive,NO66 (Nucleolar protein 66),DRSC18252
1.40e5,1.11e5,98570,71075,13335,inactive,Chs2 (Chitin synthase 2),DRSC11830
34395,36845,21600,29690,5720,inactive,CG11380,DRSC18632

The listing, repeating the preview:
"induced reporter light, run 1, well a","induced reporter light, run 1, well b","control promoter light, run 1, well a","control promoter light, run 1, well b","uninduced reporter light, run 1, well a",call,target gene,DRSC id
1.59e5,1.08e5,1.09e5,1.29e5,10405,inactive,Zip48C (Zinc/iron regulated transporter-related protein 48C),DRSC06314
1.58e5,1.84e5,2.09e5,2.33e5,11260,inactive,NO66 (Nucleolar protein 66),DRSC18252
1.40e5,1.11e5,98570,71075,13335,inactive,Chs2 (Chitin synthase 2),DRSC11830
34395,36845,21600,29690,5720,inactive,CG11380,DRSC18632
1.46e5,1.51e5,1.36e5,1.20e5,13670,inactive,CG4218,DRSC01939
78670,95740,81400,92370,4780,inactive,Obp85a (Odorant-binding protein 85a),DRSC14362
1.69e5,1.79e5,1.81e5,1.67e5,6685,inactive,mib1 (mind bomb 1),DRSC10550
1.74e5,1.65e5,2.25e5,2.34e5,15645,inactive,Tsp97E (Tetraspanin 97E),DRSC16019
1.72e5,1.62e5,2.53e5,1.73e5,11160,inactive,CG9222,DRSC03158
2.90e5,2.66e5,2.70e5,2.75e5,21110,inactive,CG31266,DRSC15747
1.04e5,87640,94270,1.28e5,9965,inactive,CG15226 (retired record),DRSC03829
78390,64210,67075,73520,4040,inactive,CG15226 (retired record),DRSC04233
14780,16315,20235,22335,1670,inactive,Prosalpha5 (Proteasome alpha5 subunit),DRSC07514
1.01e5,1.01e5,64820,87080,11405,inactive,Acp29AB (Accessory gland protein 29AB),DRSC01857
2.83e5,2.87e5,1.96e5,2.17e5,20415,inactive,CG13124,DRSC02220
1.50e5,1.48e5,3.24e5,3.13e5,12115,inactive,AdamTS-B (ADAM metallopeptidase with thrombospondin type 1 motif B),DRSC18346
1.44e5,1.14e5,2.10e5,1.83e5,8082,inactive,CG8750,DRSC11037
1.84e5,2.23e5,2.55e5,2.43e5,17800,inactive,CG12898,DRSC06213
66630,61935,72935,58595,4865,inactive,CG32643,DRSC18962
1.08e5,91725,1.61e5,1.71e5,8275,inactive,CG5011,DRSC00039
83610,99055,87295,87415,6765,inactive,CG5011,DRSC00674
1.12e5,91765,1.46e5,1.14e5,14300,inactive,CG13003,DRSC19522
1.23e5,1.50e5,1.81e5,1.92e5,11920,inactive,wda (will decrease acetylation),DRSC15579
1.02e5,1.22e5,2.03e5,1.25e5,6580,inactive,prc (pericardin),DRSC11385
89700,71700,79850,66820,7240,inactive,CG31735,DRSC01518
1.05e5,1.00e5,2.44e5,2.42e5,8320,active,wac (wee Augmin),DRSC08349
1.46e5,1.34e5,1.51e5,1.44e5,7035,inactive,Vps60 (Vacuolar protein sorting 60),DRSC10610
1.90e5,1.83e5,2.12e5,2.17e5,11710,inactive,EloB (Elongin B),DRSC16663
1.42e5,1.04e5,1.51e5,1.54e5,10830,inactive,nclb (no child left behind),DRSC07009
72690,66165,1.06e5,93975,5785,inactive,NdufA3 (NADH:ubiquinone oxidoreductase subunit A3),DRSC18431
1.63e5,1.62e5,2.00e5,2.20e5,11785,inactive,CG14024,DRSC00868
1.31e5,1.36e5,1.67e5,1.61e5,12940,inactive,CG14024,DRSC02354
1.67e5,1.90e5,1.94e5,1.85e5,10295,inactive,Unc-115a (Uncoordinated 115a),DRSC12749
30925,21440,24995,23870,6520,inactive,CG6262,DRSC06971
99435,82760,70280,33580,6885,inactive,Ranbp21,DRSC19447
2.29e5,2.08e5,3.44e5,3.53e5,18575,inactive,FLASH (FLICE-associated huge protein),DRSC06872
1.14e5,1.22e5,1.35e5,1.20e5,9270,inactive,CG13185,DRSC06310
1.37e5,1.08e5,78785,1.05e5,10150,inactive,Ide (Insulin degrading metalloproteinase),DRSC11867
1.93e5,1.54e5,2.26e5,2.19e5,15130,inactive,"Polr2L (RNA polymerase II, I and III subunit L)",DRSC14630
57285,24655,22115,31885,2275,inactive,CG13083,DRSC02187
1.72e5,1.94e5,1.49e5,1.48e5,15140,inactive,CG32373,DRSC08895
1.94e5,1.59e5,1.38e5,1.25e5,13955,inactive,CG1827,DRSC06719
1.57e5,1.34e5,2.19e5,2.19e5,11030,inactive,CG5103,DRSC10481
1.30e5,96800,1.26e5,1.26e5,8345,inactive,CG16734,DRSC15143
86325,80735,1.01e5,70730,3395,inactive,Ugt35E2 (UDP-glycosyltransferase family 35 member E2),DRSC16083
86320,83125,98475,91335,7535,inactive,ItgaPS4 (Integrin alphaPS4 subunit),DRSC06630
1.29e5,1.42e5,1.01e5,61205,9050,inactive,CG9578,DRSC20694
1.13e5,1.21e5,1.79e5,1.48e5,8340,inactive,CG2854,DRSC18595
1.95e5,2.21e5,1.88e5,1.95e5,13910,inactive,CatB (Catalase B),DRSC03194
1.33e5,1.19e5,2.05e5,2.18e5,8885,inactive,Ugt305A1 (UDP-glycosyltransferase family 305 member A1),DRSC08541
1.43e5,1.58e5,2.04e5,1.53e5,11675,inactive,asRNA:CR42743 + CG34162,DRSC01190
2.40e5,2.30e5,2.27e5,2.37e5,15650,inactive,ghi (ghiberti),DRSC08985
1.34e5,1.74e5,1.61e5,1.59e5,9185,active,Arf4 (ADP ribosylation factor 4),DRSC17195
85955,92505,1.46e5,1.52e5,6070,inactive,CG5757,DRSC06951
1.03e5,1.17e5,68065,75625,7665,inactive,Sbf (SET domain binding factor),DRSC16852
1.82e5,1.25e5,1.90e5,1.04e5,10220,inactive,CG9016,DRSC03127
87380,78370,78220,65100,4175,inactive,CG13813,DRSC10068
1.00e5,1.06e5,67565,71700,8600,inactive,CG13473,DRSC10017
1.65e5,1.14e5,1.59e5,1.54e5,12005,inactive,CG5500,DRSC15820
67670,81195,96035,85720,5640,inactive,futsch,DRSC17688
1.10e5,1.09e5,1.77e5,2.38e5,8632,inactive,futsch,DRSC17949
1.38e5,1.62e5,1.94e5,2.26e5,9850,inactive,futsch,DRSC17952
1.22e5,1.43e5,2.66e5,1.98e5,9720,inactive,futsch,DRSC18543
88485,77475,91470,64160,5575,inactive,FoxP (Forkhead box P),DRSC15159
